Where a name gives a salt, the structure may show the parent alone. Some of the results follow. This data set is noisy: repeats of one test often differ as much as different tests do.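 Cells: ReNCell VM human fetal ventral-midbrain neural progenitors, differentiated mitogen-free. Blinded raters compared doublecortin-stained (early neurons) or tyrosine hydroxylase-stained (dopaminergic neurons) images with untreated wells, where 0 means no change. After repeats and both raters were averaged, compounds scoring 2 or above became hits for retesting.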 Where a SMILES comes first, the peptide text is derived from it. [ ]: non-standard residue; d: D form. The star is where a group is joined. Sta = CC(C)C[C@H](N)[C@@H](O)CC(=O)O; Isovaleryl = CC(C)CC(=O)*

Experiment [1] concerns ReNCell VM. The experiment in a line: neuronal differentiation score (DCX+ cell fraction vs untreated, manual image score) (score (-3 to 3)); higher = more neuronal differentiation. To be noted: 2 uM, 2 weeks.
The test system of experiment [2] is ReNCell VM. The experiment in a line: dopaminergic neuron differentiation score (TH+ cell fraction vs untreated, manual image score) (score (0 to 3)); higher = more TH+ dopaminergic neuron differentiation. To be noted: 2 uM, 4 weeks, BDNF 10 ng/ml + GDNF 10 ng/ml.

As to `CC1CCC2(O)C(C)(C)C3CCC2(C)C1C3` (stereo not given) [patchouli alcohol], the neuronal differentiation score in the experiment on ReNCell VM [1] (library: Natural) was inactive: 0. Further, the “dopaminergic neuron differentiation score” value in the experiment with ReNCell VM [2] (library: Natural) is inactive: 0.

On to `CN1CCC[C@H]1c1cccnc1`, for which the neuronal differentiation score with ReNCell VM [1] (library: Spectrum) was inactive: 0. Also, the “dopaminergic neuron differentiation score” value with ReNCell VM [2] (library: Spectrum) is inactive: 0.

In the case of `CCCCc1oc2ccccc2c1C(=O)c1cc(I)c(OCCN(CC)CC)c(I)c1`, the neuronal differentiation score with ReNCell VM [1] (library: Spectrum) is inactive: 0. The “dopaminergic neuron differentiation score” value in the experiment with ReNCell VM [2] (library: Spectrum) is inactive: 0.

For `C[C@]1(Cn2ccnn2)[C@H](C(=O)O)N2C(=O)C[C@H]2S1(=O)=O` [Tazobactam], in the experiment with ReNCell VM [1] (library: Prestwick), the neuronal differentiation score is inactive: 0. Besides, the “dopaminergic neuron differentiation score” value in the experiment with ReNCell VM [2] (library: Prestwick) is inactive: 0.

On to `CC(O)C(=O)O.N` (stereo not given), for which, in the experiment on ReNCell VM [1] (library: Spectrum), the neuronal differentiation score is inactive: 0. In addition, in the experiment with ReNCell VM [2] (library: Spectrum), the “dopaminergic neuron differentiation score” value was inactive: 0.

On to `CC(=O)O[C@]1(C(C)=O)CC[C@H]2[C@@H]3C=C(Cl)C4=CC(=O)CC[C@]4(C)[C@H]3CC[C@@]21C` [Chlormadinone acetate], for which, in the experiment with ReNCell VM [1] (library: Prestwick), the neuronal differentiation score was inactive: 0. Also, in the experiment with ReNCell VM [2] (library: Prestwick), the “dopaminergic neuron differentiation score” value is inactive: 0.

For `C[C@H]1[C@H]2CC[C@H]3[C@@H]4CC=C5C[C@@H](N(C)C)CC[C@]5(C)[C@H]4CC[C@]23CN1C`, the neuronal differentiation score in the experiment on ReNCell VM [1] (library: Spectrum) is inactive: 0. Besides, the “dopaminergic neuron differentiation score” value in the experiment on ReNCell VM [2] (library: Spectrum) is inactive: 0.

With `C[C@H]1C[C@H]2[C@@H]3CCC4=CC(=O)C=C[C@]4(C)[C@@]3(F)[C@@H](O)C[C@]2(C)[C@@]1(O)C(=O)CO`, the neuronal differentiation score in the experiment on ReNCell VM [1] (library: Spectrum) is inactive: 0. Moreover, in the experiment with ReNCell VM [2] (library: Spectrum), the “dopaminergic neuron differentiation score” value is inactive: 0.

Consider `CCN(CC)CC(=O)Nc1c(C)cccc1C`, for which the neuronal differentiation score in the experiment with ReNCell VM [1] (library: Spectrum) is inactive: 0. Moreover, the “dopaminergic neuron differentiation score” value with ReNCell VM [2] (library: Spectrum) was inactive: 0.

As for `Cc1ccsc1/C=C/C1=NCCCN1C` [Morantel tartrate], in the experiment with ReNCell VM [1] (library: Prestwick), the neuronal differentiation score is inactive: 0. In addition, the “dopaminergic neuron differentiation score” value in the experiment with ReNCell VM [2] (library: Prestwick) was inactive: 0.

As for `Oc1ccc(-c2c(-c3ccccc3)nn3c(C(F)(F)F)cc(C(F)(F)F)nc23)cc1`, in the experiment with ReNCell VM [1] (library: Tocriscreen), the neuronal differentiation score was inactive: 0. Further, the “dopaminergic neuron differentiation score” value in the experiment with ReNCell VM [2] (library: Tocriscreen) is inactive: 0.

`CCOC(=O)OC(C)OC1=C(C(=O)Nc2ccccn2)N(C)S(=O)(=O)c2ccccc21` (stereo not given): in the experiment on ReNCell VM [1] (library: Spectrum), the neuronal differentiation score was inactive: 0. The “dopaminergic neuron differentiation score” value with ReNCell VM [2] (library: Spectrum) was inactive: 0.

For `CC1=C(/C=C/C(C)=C/C=C/C(C)=C/C=C/C=C(C)/C=C/C=C(C)/C=C/C2=C(C)C(=O)[C@@H](O)CC2(C)C)C(C)(C)C[C@H](O)C1=O` [Astaxanthin], in the experiment with ReNCell VM [1] (library: LOPAC), the neuronal differentiation score was inactive: 0. In addition, the “dopaminergic neuron differentiation score” value in the experiment with ReNCell VM [2] (library: LOPAC) was inactive: 0.

For `CO/N=C(\C(=O)N[C@@H]1C(=O)N2C(C(=O)O)=C(COC(C)=O)CS[C@H]12)c1csc(N)n1`, the neuronal differentiation score in the experiment on ReNCell VM [1] (library: Spectrum) was inactive: 0. Besides, in the experiment with ReNCell VM [2] (library: Spectrum), the “dopaminergic neuron differentiation score” value was inactive: 0.

On to `CC(=O)Oc1ccc2c(c1)CCC1C2CC[C@]2(C)C(=O)CCC12` (stereo not given in full), for which, in the experiment with ReNCell VM [1] (library: Spectrum), the neuronal differentiation score is inactive: 0. Besides, the “dopaminergic neuron differentiation score” value in the experiment with ReNCell VM [2] (library: Spectrum) is inactive: 0.

Regarding `O=C(O)c1cccnc1Nc1cccc(C(F)(F)F)c1`, the neuronal differentiation score with ReNCell VM [1] (library: Spectrum) is inactive: 0. For the same compound, the “dopaminergic neuron differentiation score” value with ReNCell VM [2] (library: Spectrum) is inactive: 0.

Take `NC(C(=O)O)c1ccc(C(=O)O)c(C(=O)O)c1` (stereo not given): in the experiment on ReNCell VM [1] (library: Tocriscreen), the neuronal differentiation score was inactive: 0. Further, the “dopaminergic neuron differentiation score” value in the experiment on ReNCell VM [2] (library: Tocriscreen) is inactive: 0.

In the case of `CCc1cc(Cl)c(OC)c(C(=O)NC[C@@H]2CCCN2CC)c1O` [Eticlopride hydrochloride], in the experiment on ReNCell VM [1] (library: Tocriscreen), the neuronal differentiation score is inactive: 0. The “dopaminergic neuron differentiation score” value with ReNCell VM [2] (library: Tocriscreen) is inactive: 0.

On to `Clc1ccccc1CNCC1CCC(CNCc2ccccc2Cl)CC1` (stereo not given), for which the neuronal differentiation score in the experiment on ReNCell VM [1] (library: Tocriscreen) was inactive: 0. Also, in the experiment on ReNCell VM [2] (library: Tocriscreen), the “dopaminergic neuron differentiation score” value is inactive: 0.

As for `CC1NC(=O)NC1=O` (stereo not given), the neuronal differentiation score in the experiment on ReNCell VM [1] (library: Spectrum) is inactive: 0. In addition, the “dopaminergic neuron differentiation score” value in the experiment on ReNCell VM [2] (library: Spectrum) is inactive: 0.

On to `O=C(O)c1ccc(S(=O)(=O)N(Cl)Cl)cc1`, for which the neuronal differentiation score in the experiment on ReNCell VM [1] (library: Spectrum) was inactive: 0. The “dopaminergic neuron differentiation score” value in the experiment on ReNCell VM [2] (library: Spectrum) was inactive: 0.

Turning to `O=S(=O)(O)CCS` [Mesna], the neuronal differentiation score in the experiment on ReNCell VM [1] (library: Prestwick) was inactive: 0. For the same compound, the “dopaminergic neuron differentiation score” value in the experiment on ReNCell VM [2] (library: Prestwick) is inactive: 0.

Take `Nc1ccc(S(=O)(=O)Nc2cnc3ccccc3n2)cc1`: the neuronal differentiation score in the experiment with ReNCell VM [1] (library: Spectrum) is inactive: 0. Besides, the “dopaminergic neuron differentiation score” value with ReNCell VM [2] (library: Spectrum) was inactive: 0.

As for `CC(C)CC(=O)N[C@H](C(=O)N[C@H](C(=O)N[C@@H](CC(C)C)[C@@H](O)CC(=O)N[C@@H](C)C(=O)N[C@@H](CC(C)C)[C@@H](O)CC(=O)O)C(C)C)C(C)C` [Pepstatin A] (Isovaleryl-VV[Sta]A[Sta]-OH), in the experiment on ReNCell VM [1] (library: Prestwick), the neuronal differentiation score was inactive: 0. Besides, the “dopaminergic neuron differentiation score” value with ReNCell VM [2] (library: Prestwick) is inactive: 0.

For `CC(C)[C@H]1c2ccc(F)cc2CC[C@@]1(CCN(C)CCCc1nc2ccccc2[nH]1)OC(=O)C1CC1`, the neuronal differentiation score in the experiment on ReNCell VM [1] (library: LOPAC) is inactive: 0. Besides, in the experiment with ReNCell VM [2] (library: LOPAC), the “dopaminergic neuron differentiation score” value is inactive: 0.

With `C[N+](C)(C)CCOP(=O)(O)OP(=O)([O-])OC[C@H]1O[C@@H](n2ccc(N)nc2=O)[C@H](O)[C@@H]1O` [Citicoline sodium], the neuronal differentiation score in the experiment with ReNCell VM [1] (library: LOPAC) is inactive: 0. Also, the “dopaminergic neuron differentiation score” value in the experiment with ReNCell VM [2] (library: LOPAC) was inactive: 0.

Regarding `OCc1cc(C(O)CNCCCCCCOCCCCc2ccccc2)ccc1O` (stereo not given) [Salmeterol xinafoate], in the experiment on ReNCell VM [1] (library: LOPAC), the neuronal differentiation score was inactive: 0. Besides, the “dopaminergic neuron differentiation score” value in the experiment with ReNCell VM [2] (library: LOPAC) is inactive: 0.

Take `C#C[C@]1(O)CC[C@H]2[C@@H]3CCc4cc(OC5CCCC5)ccc4[C@H]3CC[C@@]21C`: the neuronal differentiation score in the experiment on ReNCell VM [1] (library: Spectrum) is inactive: 1. In the experiment with ReNCell VM [2] (library: Spectrum), the “dopaminergic neuron differentiation score” value is inactive: 0.

Consider `NCCc1ccc(O)c(O)c1`, for which the neuronal differentiation score in the experiment on ReNCell VM [1] (library: Spectrum) was inactive: 0. For the same compound, the “dopaminergic neuron differentiation score” value with ReNCell VM [2] (library: Spectrum) was inactive: 0.

On to `Cc1cc(CC(=O)O)n(C)c1C(=O)c1ccc(Cl)cc1` [Zomepirac sodium salt], for which the neuronal differentiation score in the experiment with ReNCell VM [1] (library: Prestwick) is inactive: 0. For the same compound, the “dopaminergic neuron differentiation score” value with ReNCell VM [2] (library: Prestwick) was inactive: 0.

`CC(C)NC[C@H](O)COc1ccc(CC(N)=O)cc1` [S-(-)-Atenolol]: the neuronal differentiation score in the experiment with ReNCell VM [1] (library: Tocriscreen) is inactive: 0. In addition, in the experiment on ReNCell VM [2] (library: Tocriscreen), the “dopaminergic neuron differentiation score” value was inactive: 0.

For the compound `NCCNCCNCCN`, in the experiment with ReNCell VM [1] (library: Spectrum), the neuronal differentiation score is inactive: 0. Besides, the “dopaminergic neuron differentiation score” value in the experiment on ReNCell VM [2] (library: Spectrum) is inactive: 0.

For the compound `CCCc1nc(C(C)(C)O)c(C(=O)O)n1Cc1ccc(-c2ccccc2-c2nnn[nH]2)cc1`, in the experiment with ReNCell VM [1] (library: Spectrum), the neuronal differentiation score is inactive: 0. Also, the “dopaminergic neuron differentiation score” value in the experiment on ReNCell VM [2] (library: Spectrum) is inactive: 0.

In the case of `COc1cc(COc2cc(N)c(Cl)cc2C(=O)CCC2CCN(CCNS(C)(=O)=O)CC2)cc(OC)c1`, the neuronal differentiation score with ReNCell VM [1] (library: Tocriscreen) is inactive: 0. The “dopaminergic neuron differentiation score” value with ReNCell VM [2] (library: Tocriscreen) was inactive: 0.

Regarding `N=C(NCCCCCCNC(=N)NC(=N)Nc1ccc(Cl)cc1)NC(=N)Nc1ccc(Cl)cc1` [Chlorhexidine], the neuronal differentiation score with ReNCell VM [1] (library: Prestwick) was inactive: 0. Further, the “dopaminergic neuron differentiation score” value in the experiment on ReNCell VM [2] (library: Prestwick) is inactive: 0.
